Taken from: PubChem BioAssay AID652243 (Drosophila RNAi Screening Center, 2013)
In all, the deposit lists about 24,000 reagents; below is an unselected part of those with a known target gene and a result. Over the whole deposit, 246 (1%) got an active call. 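Plates not normalised; calls are printed but the firefly/Renilla ratio behind them is not deposited; fold cut for lowering reported inconsistently.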 Raw values vary from plate to plate and are shown uncorrected. Reagents against one gene are numbered here. A plus sign joins genes that one reagent is predicted to hit. Not given: the amount of reagent.

Purpose: 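Fly regulators of androgen-dependent reporter output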 (primary screen)
System: Drosophila S2R+ cells
Knock-down reagent: long dsRNA against Drosophila genes
Timing: 72 h (48 h, then 24 h hormone)
Challenge: synthetic androgen R1881 at 10 nM for 24 h
Measured: 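Per-well raw luminescence of the androgen-driven firefly reporter and of the Renilla control, two replicates each, without normalisation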
Direction: firefly reporter light: higher = more light from androgen-responsive reporter; Renilla control light: higher = more constitutive control signal (cell number, transfection)
Rule for the call: 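Across duplicate plates, a knock-down whose log firefly/Renilla ratio shifted a set fold down or up from the GFP/LacZ control mean was a hit; the downward cut appears as both 1.5 and 3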
Meaning of the calls: active = hit: reporter lowered or raised; inactive = no hit

Ir48c showed firefly reporter light, replicate 1 = 3.03e5; firefly reporter light, replicate 2 = 2.02e5; Renilla control light, replicate 1 = 1.93e6; Renilla control light, replicate 2 = 1.75e6; inactive.
Silencing of Tps1 #1 came out at: firefly reporter light, replicate 1 = 6.15e5; firefly reporter light, replicate 2 = 7.25e5; Renilla control light, replicate 1 = 1.21e6; Renilla control light, replicate 2 = 1.54e6; inactive.
For Tps1 #2, the values are firefly reporter light, replicate 1 = 3.54e5; firefly reporter light, replicate 2 = 3.53e5; Renilla control light, replicate 1 = 6.12e5; Renilla control light, replicate 2 = 7.01e5; inactive.
With knock-down of Gr59f #1, the screen gave firefly reporter light, replicate 1 = 2.71e5; firefly reporter light, replicate 2 = 3.55e5; Renilla control light, replicate 1 = 1.40e6; Renilla control light, replicate 2 = 1.47e6; inactive.
Knock-down of Gr59f #2 came out at: firefly reporter light, replicate 1 = 4.10e5; firefly reporter light, replicate 2 = 3.25e5; Renilla control light, replicate 1 = 8.25e5; Renilla control light, replicate 2 = 6.00e5; inactive.
CG42455 + vnc scored firefly reporter light, replicate 1 = 9.01e5; firefly reporter light, replicate 2 = 8.11e5; Renilla control light, replicate 1 = 1.67e6; Renilla control light, replicate 2 = 1.90e6; inactive.
Depletion of CG5439 #1 resulted in: firefly reporter light, replicate 1 = 9.75e5; firefly reporter light, replicate 2 = 8.87e5; Renilla control light, replicate 1 = 2.09e6; Renilla control light, replicate 2 = 2.17e6; inactive.
Silencing of CG5439 #2 resulted in: firefly reporter light, replicate 1 = 2.58e5; firefly reporter light, replicate 2 = 4.14e5; Renilla control light, replicate 1 = 7.22e5; Renilla control light, replicate 2 = 7.51e5; inactive.
For CG5172 #1 the deposit lists firefly reporter light, replicate 1 = 4.47e5; firefly reporter light, replicate 2 = 4.00e5; Renilla control light, replicate 1 = 3.18e6; Renilla control light, replicate 2 = 3.10e6; inactive.
For CG5172 #2, the entry reads firefly reporter light, replicate 1 = 1.19e6; firefly reporter light, replicate 2 = 1.14e6; Renilla control light, replicate 1 = 8.24e5; Renilla control light, replicate 2 = 1.18e6; inactive.
After knock-down of Rab10 #1 the results were firefly reporter light, replicate 1 = 4.42e5; firefly reporter light, replicate 2 = 1.71e5; Renilla control light, replicate 1 = 1.34e6; Renilla control light, replicate 2 = 5.43e5; inactive.
Rab10 #2 scored firefly reporter light, replicate 1 = 4.27e5; firefly reporter light, replicate 2 = 3.40e5; Renilla control light, replicate 1 = 4.12e5; Renilla control light, replicate 2 = 4.46e5; inactive.
GckIII #1 showed firefly reporter light, replicate 1 = 1.01e5; firefly reporter light, replicate 2 = 1.03e5; Renilla control light, replicate 1 = 1.47e6; Renilla control light, replicate 2 = 1.69e6; inactive.
Against GckIII #2, the values are inactive.
After knock-down of GAPcenA, the record shows firefly reporter light, replicate 1 = 2.10e5; firefly reporter light, replicate 2 = 1.91e5; Renilla control light, replicate 1 = 2.42e6; Renilla control light, replicate 2 = 2.03e6; inactive.
Silencing of GABA-B-R1 came out at: firefly reporter light, replicate 1 = 8.51e5; firefly reporter light, replicate 2 = 6.94e5; Renilla control light, replicate 1 = 2.00e6; Renilla control light, replicate 2 = 1.29e6; inactive.
Sema2b #1 scored firefly reporter light, replicate 1 = 1.31e5; firefly reporter light, replicate 2 = 2.52e5; Renilla control light, replicate 1 = 1.82e5; Renilla control light, replicate 2 = 3.05e5; inactive.
After knock-down of Sema2b #2, the screen gave firefly reporter light, replicate 1 = 1.23e5; firefly reporter light, replicate 2 = 1.78e5; Renilla control light, replicate 1 = 2.84e6; Renilla control light, replicate 2 = 2.84e6; inactive.
Sema2b #3 gave firefly reporter light, replicate 1 = 8.56e5; firefly reporter light, replicate 2 = 6.74e5; Renilla control light, replicate 1 = 7.56e5; Renilla control light, replicate 2 = 9.51e5; inactive.
For CG31562 (retired record) #1 the deposit lists firefly reporter light, replicate 1 = 18641; firefly reporter light, replicate 2 = 31510; Renilla control light, replicate 1 = 6.27e5; Renilla control light, replicate 2 = 6.39e5; inactive.
Knock-down of CG31562 (retired record) #2 resulted in: firefly reporter light, replicate 1 = 56841; firefly reporter light, replicate 2 = 68593; Renilla control light, replicate 1 = 1.15e6; Renilla control light, replicate 2 = 1.37e6; inactive.
After knock-down of lncRNA:CR43242 the results were firefly reporter light, replicate 1 = 3.92e5; firefly reporter light, replicate 2 = 3.35e5; Renilla control light, replicate 1 = 2.36e6; Renilla control light, replicate 2 = 1.85e6; inactive.
CG14316 showed firefly reporter light, replicate 1 = 53522; firefly reporter light, replicate 2 = 1.07e5; Renilla control light, replicate 1 = 8.55e5; Renilla control light, replicate 2 = 9.75e5; inactive.
After knock-down of Sirt4 #1, the record shows firefly reporter light, replicate 1 = 1.90e5; firefly reporter light, replicate 2 = 2.43e5; Renilla control light, replicate 1 = 1.77e6; Renilla control light, replicate 2 = 2.03e6; inactive.
Knock-down of Sirt4 #2 resulted in: firefly reporter light, replicate 1 = 4.15e5; firefly reporter light, replicate 2 = 3.71e5; Renilla control light, replicate 1 = 7.24e5; Renilla control light, replicate 2 = 8.07e5; inactive.
Knock-down of CG17821 resulted in: firefly reporter light, replicate 1 = 1.00e5; firefly reporter light, replicate 2 = 1.24e5; Renilla control light, replicate 1 = 1.13e6; Renilla control light, replicate 2 = 1.09e6; inactive.
After knock-down of CG13551 the results were firefly reporter light, replicate 1 = 5.90e5; firefly reporter light, replicate 2 = 4.79e5; Renilla control light, replicate 1 = 1.03e6; Renilla control light, replicate 2 = 8.03e5; inactive.

2 entries already listed, ordered by “Renilla control light, replicate 2”, high to low:
Ir48c — firefly reporter light, replicate 1 = 3.03e5; firefly reporter light, replicate 2 = 2.02e5; Renilla control light, replicate 1 = 1.93e6; Renilla control light, replicate 2 = 1.75e6; activity call = inactive
Tps1 #1 — firefly reporter light, replicate 1 = 6.15e5; firefly reporter light, replicate 2 = 7.25e5; Renilla control light, replicate 1 = 1.21e6; Renilla control light, replicate 2 = 1.54e6; activity call = inactive
